In patent publication US20090285807A1 (METHERESIS TRANSLATIONAL RESEARCH, published 2009):
These are yes or no findings as the source states them, for the method shown. Some results given as binding are weak or reduced against the parent protein; the word gives no strength.

Amino acid sequences for entries named in this document (tags omitted). Residues count along the entry.
UniProt P08581, residues 25-932: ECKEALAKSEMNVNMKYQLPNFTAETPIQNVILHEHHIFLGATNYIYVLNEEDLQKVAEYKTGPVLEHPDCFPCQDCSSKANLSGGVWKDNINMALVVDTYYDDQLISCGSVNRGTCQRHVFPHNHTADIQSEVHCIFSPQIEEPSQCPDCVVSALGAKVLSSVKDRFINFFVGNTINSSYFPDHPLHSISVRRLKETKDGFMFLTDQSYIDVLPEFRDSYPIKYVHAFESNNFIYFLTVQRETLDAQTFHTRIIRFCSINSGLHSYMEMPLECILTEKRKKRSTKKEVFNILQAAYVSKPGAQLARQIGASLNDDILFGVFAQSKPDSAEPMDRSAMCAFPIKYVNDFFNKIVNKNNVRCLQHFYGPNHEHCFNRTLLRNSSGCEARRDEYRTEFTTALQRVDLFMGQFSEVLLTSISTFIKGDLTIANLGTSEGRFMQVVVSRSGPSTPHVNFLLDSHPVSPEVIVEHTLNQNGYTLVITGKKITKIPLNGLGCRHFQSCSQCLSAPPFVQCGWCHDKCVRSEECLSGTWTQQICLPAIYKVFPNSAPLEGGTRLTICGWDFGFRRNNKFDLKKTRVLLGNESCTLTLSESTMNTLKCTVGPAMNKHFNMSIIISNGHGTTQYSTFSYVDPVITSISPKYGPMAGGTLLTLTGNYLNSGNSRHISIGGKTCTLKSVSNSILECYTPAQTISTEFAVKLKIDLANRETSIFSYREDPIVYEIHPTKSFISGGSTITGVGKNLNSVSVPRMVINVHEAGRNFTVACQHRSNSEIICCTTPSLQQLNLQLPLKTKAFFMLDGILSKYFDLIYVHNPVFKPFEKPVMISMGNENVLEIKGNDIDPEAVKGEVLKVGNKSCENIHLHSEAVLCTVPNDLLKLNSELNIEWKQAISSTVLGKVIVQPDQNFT

Columns and labels:
[1] = target: purified MET extracellular domain fused to the Fc domain derived from Human Ig (UniProt P08581); test: ELISA on plates coated with MET extracellular domain-Fc (FIG. 11B)
[2] = target: purified MET extracellular domain fused to the Fc domain derived from Human Ig (UniProt P08581); test: ELISA on plates coated with MET extracellular domain-Fc (100 ng/well), antibody 0 to 5.5 nM

| Binder | binding [1] | binding [2] |
| --- | --- | --- |
| recombinant AntiMET-R produced by carcinoma cell lines transduced with the bi-directional lentiviral vector carrying AntiMET-R cDNAs (antibody, mouse IgG2a, kappa, V domains shown) VH: QVQLQQPGTELVKPGASVKLSCKASGYTFTSYWIHWVKQRPGQGLEWIGEINPSSGRTNYNEKFKNKVTVTVDKSSTTAYMQLSNLTSEDSAVYYCASRGYWGQGTTLTVSS VL: DIVLTQSPASLAVSLGQRATISCKASQSVDYDGGSYMSWFQQRPGQPPKLLISAASNLESGIPARFSGSGSGTDFTLNIHPVEEEDVATYYCQQSYEDPLTFGAGTKLELKR | binds | binds |
| AntiMET-R, anti-Met monoclonal antibody produced by the hybridoma cell line ICLC PD 05006 (antibody, mouse IgG2a, kappa, V domains shown, Mouse monoclonal antibody from a hybridoma; They may include leader peptides; also called purified AntiMET-R) VH: QVQLQQPGTELVKPGASVKLSCKASGYTFTSYWIHWVKQRPGQGLEWIGEINPSSGRTNYNEKFKNKVTVTVDKSSTTAYMQLSNLTSEDSAVYYCASRGYWGQGTTLTVSS VL: DIVLTQSPASLAVSLGQRATISCKASQSVDYDGGSYMSWFQQRPGQPPKLLISAASNLESGIPARFSGSGSGTDFTLNIHPVEEEDVATYYCQQSYEDPLTFGAGTKLELKR | binds |  |
